PubChem BioAssay AID1259308 – NCATS, 2017

Test: 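Genes whose loss raises luciferase production in HEK293 cells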 (primary screen)
System: human HEK293 embryonic kidney cells stably expressing firefly luciferase (HEK-CMV-Luc2-Hygro)
Reagent: single siRNA against human genes, 0.8 pmol siRNA per well
Time to read-out: 72 h
Measurement: 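Reporter luminescence and viable-cell signal on separate replicate plates, given as percent of non-targeting control and median/MAD z-scores, plus per-cell luciferase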
Direction: total luciferase, z-score and total luciferase, % of control: higher = more reporter protein produced
Hit rule: 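An siRNA counts as active if its total luciferase robust z-score exceeds 3; genes with two or more such siRNAs out of three were retested with fresh siRNAs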
Calls: active = raised luciferase; inactive = no rise
In all, the deposit lists about 59,000 reagents; below is a random part of them. Over the whole deposit, about 1,510 (2.6%) are marked active. 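Calls use total luciferase alone and ignore viability, so some active siRNAs may act by altering cell number.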 Unmarked entries are inactive. The numbers tell different reagents against one gene apart. Not all columns of the deposit are shown.

{"gene knocked down":"ELF4","siRNA no.":1,"total luciferase, z-score":-0.271,"total luciferase, % of control":76.5}
{"gene knocked down":"ELF4","siRNA no.":2,"total luciferase, z-score":0.78,"total luciferase, % of control":97.4}
{"gene knocked down":"ELF4","siRNA no.":3,"total luciferase, z-score":-0.185,"total luciferase, % of control":78.2}
{"gene knocked down":"CENPK","siRNA no.":1,"total luciferase, z-score":-1.31,"total luciferase, % of control":55.7}
{"gene knocked down":"CENPK","siRNA no.":2,"total luciferase, z-score":0.492,"total luciferase, % of control":91.7}
{"gene knocked down":"CENPK","siRNA no.":3,"total luciferase, z-score":1.1,"total luciferase, % of control":104}
{"gene knocked down":"IBA57","siRNA no.":1,"total luciferase, z-score":0.266,"total luciferase, % of control":87.2}
{"gene knocked down":"IBA57","siRNA no.":2,"total luciferase, z-score":-0.227,"total luciferase, % of control":77.4}
{"gene knocked down":"IBA57","siRNA no.":3,"total luciferase, z-score":-0.797,"total luciferase, % of control":66}
{"gene knocked down":"APBB3","siRNA no.":1,"total luciferase, z-score":-1.25,"total luciferase, % of control":57}
{"gene knocked down":"APBB3","siRNA no.":2,"total luciferase, z-score":1.74,"total luciferase, % of control":116}
{"gene knocked down":"APBB3","siRNA no.":3,"total luciferase, z-score":-0.557,"total luciferase, % of control":70.8}
{"gene knocked down":"NSL1","siRNA no.":1,"total luciferase, z-score":0.231,"total luciferase, % of control":86.5}
{"gene knocked down":"NSL1","siRNA no.":2,"total luciferase, z-score":0.903,"total luciferase, % of control":99.9}
{"gene knocked down":"NSL1","siRNA no.":3,"total luciferase, z-score":0.919,"total luciferase, % of control":100}
{"gene knocked down":"CLMP","siRNA no.":1,"total luciferase, z-score":-0.165,"total luciferase, % of control":78.6}
{"gene knocked down":"CLMP","siRNA no.":2,"total luciferase, z-score":-0.315,"total luciferase, % of control":75.6}
{"gene knocked down":"CLMP","siRNA no.":3,"total luciferase, z-score":0.982,"total luciferase, % of control":101}
{"gene knocked down":"RPN2","siRNA no.":1,"total luciferase, z-score":1.53,"total luciferase, % of control":112}
{"gene knocked down":"RPN2","siRNA no.":2,"total luciferase, z-score":-1.7,"total luciferase, % of control":48.1}
{"gene knocked down":"RPN2","siRNA no.":3,"total luciferase, z-score":-2.05,"total luciferase, % of control":41.1}
{"gene knocked down":"DEFB119","siRNA no.":1,"total luciferase, z-score":1.75,"total luciferase, % of control":117}
{"gene knocked down":"DEFB119","siRNA no.":2,"total luciferase, z-score":-0.541,"total luciferase, % of control":71.1}
{"gene knocked down":"DEFB119","siRNA no.":3,"total luciferase, z-score":-1.66,"total luciferase, % of control":48.9}
{"gene knocked down":"MESP2","siRNA no.":1,"total luciferase, z-score":0.252,"total luciferase, % of control":86.9}
{"gene knocked down":"MESP2","siRNA no.":2,"total luciferase, z-score":0.585,"total luciferase, % of control":93.5}
{"gene knocked down":"MESP2","siRNA no.":3,"total luciferase, z-score":-0.591,"total luciferase, % of control":70.1}
{"gene knocked down":"TRUB1","siRNA no.":1,"total luciferase, z-score":-0.299,"total luciferase, % of control":75.9}
{"gene knocked down":"TRUB1","siRNA no.":2,"total luciferase, z-score":0.494,"total luciferase, % of control":91.7}
{"gene knocked down":"TRUB1","siRNA no.":3,"total luciferase, z-score":1.17,"total luciferase, % of control":105}
{"gene knocked down":"ALDH1B1","siRNA no.":1,"total luciferase, z-score":1.38,"total luciferase, % of control":109}
{"gene knocked down":"ALDH1B1","siRNA no.":2,"total luciferase, z-score":-1.18,"total luciferase, % of control":58.5}
{"gene knocked down":"ALDH1B1","siRNA no.":3,"total luciferase, z-score":0.138,"total luciferase, % of control":84.6}

Single entries from the list.
Entry for MESP2 #2 under “total luciferase, z-score”: 0.585
Value of MESP2 #3 in “total luciferase, % of control”: 70.1
MESP2 #1, total luciferase, % of control = 86.9
